Data taken from PubChem BioAssay AID2551 (National Center for Advancing Translational Sciences (NCATS), 2010).
In all, about 310,000 compounds went through this assay and about 17,000 (5.5%) were called active. The inconclusive results got no clear call from the source; some entries with a clear call stand among them for comparison. Calls come from the whole dose curve; as a rule, active = well fitted inhibition curve with a large enough effect; inconclusive = small, poorly fitted or top-dose-only effect, or effect the other way; inactive = no such curve, though single readings can be large or run the other way. Where the call is inconclusive, the potency comes from a doubtful curve fit.

By UniProt entry, the sequences of proteins in these tests, tags left out. Where a name states a change or a piece, a line headed by the entry shows the natural chain unless it says otherwise.
UniProt P51450: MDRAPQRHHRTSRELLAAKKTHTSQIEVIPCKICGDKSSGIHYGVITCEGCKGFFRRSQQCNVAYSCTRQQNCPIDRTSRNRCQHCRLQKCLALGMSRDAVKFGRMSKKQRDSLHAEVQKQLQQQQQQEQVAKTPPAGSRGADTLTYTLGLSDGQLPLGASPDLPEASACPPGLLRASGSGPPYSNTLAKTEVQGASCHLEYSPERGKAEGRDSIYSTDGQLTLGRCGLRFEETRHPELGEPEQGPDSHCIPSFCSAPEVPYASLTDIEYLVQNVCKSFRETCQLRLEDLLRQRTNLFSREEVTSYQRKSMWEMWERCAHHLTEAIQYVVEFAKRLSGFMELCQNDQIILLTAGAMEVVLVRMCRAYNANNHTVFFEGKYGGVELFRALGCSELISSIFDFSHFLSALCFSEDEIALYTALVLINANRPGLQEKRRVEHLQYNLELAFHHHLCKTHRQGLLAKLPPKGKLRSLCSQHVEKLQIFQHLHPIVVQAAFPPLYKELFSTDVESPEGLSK

Target: Nuclear receptor ROR-gamma (Mus musculus) (UniProt P51450)
Assay: qHTS for inhibitors of ROR gamma transcriptional activity; note: nearly all actives have a fitted effect of over 60% in size
Conditions: Drosophila S2 Gal4-RORgamma UAS-luciferase reporter, 20 h; activity change, negative = inhibition: at 53.6 µM (top of the series)
In short: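 Read-out: Photinus luciferase luminescence; inhibitors lower reporter signal. Insect Schneider cells with Gal4-ROR gamma fusion under metallothionein promoter, UAS reporter; 700 uM final copper sulfate induction, 20 hr, ambient temperature.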
% is set by controls: 0 for no effect and ±100 for the full control effect; potency is the fitted concentration of half-maximal effect.

| Compound | Potency | activity change, negative = inhibition |
| --- | --- | --- |
| CC(=O)Nc1ccc(/C(C)=N/Nc2nc(Nc3ccccc3)nc(N3CCOCC3)n2)cc1 | active: 10 µM | – |
| Nc1cc2c(cc1[N+](=O)[O-])OCO2 | – | inactive: -21.6% |
| CCCc1nnc(NC(=O)c2nc(S(=O)(=O)Cc3cccc(C)c3)ncc2Cl)s1 | inconclusive: 35.5 µM [inhibitor, single point] | – |
| Oc1ccc(/C=N/NC(=S)N2CCOCC2)cc1 | active: 1.12 µM | – |
| COc1ccccc1C(=O)N/N=C/c1ccc(Cl)s1 | inconclusive: 35.5 µM [inhibitor, single point] | – |
| N=c1c(C(=O)NCC2CCCO2)cc2c(=O)n3ccccc3nc2n1Cc1ccc(Cl)cc1 (stereo unspecified) | – | inactive: -1.56% |
| COc1ccc(Oc2ccc(/C=C/C(=O)c3cccc(OC)c3)cc2[N+](=O)[O-])cc1 | inconclusive: 35.5 µM [inhibitor, single point] | – |
| CN(C)CCN1C(=O)C(=O)/C(=C(/O)c2ccc(F)cc2)C1c1ccccc1 (stereo unspecified) | – | inactive: -4.84% |
| CN=Cc1nc(-c2ccccc2)oc1O | inconclusive: 4.47 µM [activator, single point] | – |
| CC(=O)c1ccc(NC(=O)c2ccc(COc3ccccc3[N+](=O)[O-])o2)cc1 | inconclusive: 20 µM [activator, single point] | – |
| CCOC(=O)C(C)/C(C)=N/NC(=O)c1cc2ccccc2cc1O (stereo unspecified) | active: 11.2 µM | – |
| O=C(O)CCN1C(=O)C(=C2CCCCCC2)SC1=S | inconclusive: 14.1 µM [inhibitor, single point] | – |
| COCc1nc2ccccc2n1Cc1c(F)cccc1Cl | inconclusive: 20 µM [inhibitor, single point] | – |
| O=C(/C=C/c1ccc(O)c(O)c1)NC(=O)c1ccccc1O | inactive | – |
| Cc1ccc(C(=O)C(NC(=O)c2ccco2)Nc2sc3c(c2C(N)=O)CCCC3)cc1 (stereo unspecified) | inconclusive: 14.1 µM [activator, single point] | – |
| O=Cc1cn(CC(=O)Nc2ccc3c(c2)OCO3)c2ccccc12 | inconclusive: 35.5 µM [activator, single point] | – |
| CN1CCOc2cc(S(=O)(=O)Nc3ccc(F)cc3)ccc21 | inconclusive: 22.4 µM [activator, single point] | – |
| Cc1occc1-c1nnc(SCC(=O)Nc2nc3ccccc3s2)o1 | inconclusive: 35.5 µM [inhibitor, single point] | – |
| O=S(=O)(Cc1ccc(Cl)cc1)c1ncc(CO)n1Cc1ccccc1 | inconclusive: 0.355 µM [inhibitor, single point] | – |
| C/C(N)=C(/C#N)C(=O)COC(=O)CNS(=O)(=O)c1c(F)cccc1F | inconclusive: 2.51 µM [inhibitor, partial curve] | – |
| CCCCn1c(SCC(=O)Nc2cc(C)on2)nc2ccccc2c1=O | – | inactive: 31.1% |
| O=S(Cc1ccc(Br)cc1)Cc1nnc(SCc2c(F)cccc2Cl)n1-c1ccccc1 (stereo unspecified) | inconclusive: 14.1 µM [activator, partial curve] | – |
| Cc1ccc(S(=O)(=O)N2CCCCC2)cc1NC(=O)COC(=O)CNC(=O)c1cc(Cl)cc([N+](=O)[O-])c1 | – | inactive: 13% |
| CC(C)(C)CC(C)(C)N1CNC(=S)NC1 | active: 10 µM | – |

Retrieved by compound from above, 3 records:

| Compound | Potency | activity change, negative = inhibition |
| --- | --- | --- |
| Cc1ccc(S(=O)(=O)N2CCCCC2)cc1NC(=O)COC(=O)CNC(=O)c1cc(Cl)cc([N+](=O)[O-])c1 | – | inactive: 13% |
| Nc1cc2c(cc1[N+](=O)[O-])OCO2 | – | inactive: -21.6% |
| CC(C)(C)CC(C)(C)N1CNC(=S)NC1 | active: 10 µM | – |

Next part

| Compound | Potency | activity change, negative = inhibition |
| --- | --- | --- |
| CCN(c1ccc(NC(=O)c2cccc(S(=O)(=O)N3CCN(C)CC3)c2)cc1)C(C)C | inconclusive: 7.94 µM [inhibitor, partial curve] | – |
| CCCc1c(NC(=O)Nc2ccc(F)cc2)cnn1-c1ccc(Cl)cc1 | inconclusive: 20 µM [activator, partial curve] | – |
| CCN1CCN(CCNC(=O)c2ccc(/C=C3\Sc4ccccc4N(Cc4ccccc4F)C3=O)cc2)CC1 | inconclusive: 35.5 µM [inhibitor, single point] | – |
| O=C(O)c1cccc(NC(=S)NC(=O)c2ccc(-c3ccccc3)cc2)c1 | – | inactive: 8.17% |
| COc1ccc(/C=N/NC(=O)CCC(=O)Nc2ccc(Br)cc2)c(OC)c1 | inconclusive: 2.82 µM [inhibitor, single point] | – |
| O=C(Nc1cc(C(F)(F)F)ccc1Cl)C(Sc1ccccn1)c1ccccc1 (stereo unspecified) | inconclusive: 35.5 µM [activator, single point] | – |
| COC(=O)c1cc(CSC(=N)N)ccc1OCCC(C)C | inconclusive: 35.5 µM [inhibitor, single point] | – |
| CC(C)Oc1ccc(C(CC(=O)O)NC(=O)c2cccs2)cc1 (stereo unspecified) | inconclusive: 35.5 µM [inhibitor, single point] | – |
| CCOC(=O)c1sc(NC(=O)c2cc(-c3ccccc3)nc3ccccc23)c(C#N)c1C | inconclusive: 3.16 µM [activator, full curve] | – |
| CC12CC(NC(=O)N1c1cccc(C(=O)NCc3ccc4c(c3)OCO4)c1)c1cc(Cl)ccc1O2 (stereo unspecified) | inconclusive: 11.2 µM [activator, partial curve] | – |
| CC/C(C)=N\NC(=O)CNC(=O)c1ccc(Cl)cc1Cl | inconclusive: 17.8 µM [inhibitor, single point] | – |
| COc1cccc(CN(C)C(=O)c2ccc(COc3ccc(Cl)cc3)cc2)c1OC | inconclusive: 11.2 µM [activator, single point] | – |
| Fc1ccc(-n2cc(-c3ccccc3)c3c(NN4CCOCC4)ncnc32)cc1 | active: 12.6 µM | – |
| O=C(Nc1cccc(S(=O)(=O)C(F)F)c1)c1ccc(S(=O)(=O)N2CCCC2)cc1 | inconclusive: 15.8 µM [activator, single point] | – |
| Cc1ccccc1/C=N/Nc1ccnc2cc(Cl)ccc12 | inconclusive: 31.6 µM [inhibitor, single point] | – |
| O=C(NC(=S)NCCC1=CCCCC1)c1cccnc1 | active: 3.98 µM | – |
| COc1cc(O)c2c(c1)OC(c1ccc(O)cc1)CC2=O (stereo unspecified) | inconclusive: 12.6 µM [inhibitor, single point] | – |
| C=CCNC(=O)c1cc(-c2ccc3c(c2)OCO3)on1 | inconclusive: 12.6 µM [inhibitor, partial curve, poor fit] | – |
| CCCn1c2ccccc2c2nnc(SCc3[nH]c(=O)[nH]c3C(=O)CCCCC(=O)OCC)nc21 | inconclusive: 15.8 µM [inhibitor, single point] | – |
| C[C@H](NC(=O)c1nc[nH]c1C(=O)N1CCN(c2ccccc2)CC1)C(=O)OC(C)(C)C | inconclusive: 14.1 µM [inhibitor, single point] | – |
| N#Cc1cccc(S(=O)(=O)NCC(=O)NCCCc2ccccc2)c1 | inconclusive: 20 µM [inhibitor, single point] | – |
| O=C(Nc1nc2ccc(S(=O)(=O)N3CCCC3)cc2s1)c1ccccn1 | active: 2.82 µM | – |
| O=C1CCC(=O)N1c1ccc(S(=O)(=O)Nc2cccc(Br)c2)cc1 | – | inactive: 16.6% |
| CC(=O)c1ccc(NC(=S)NC(C)c2ccc(Cl)cc2Cl)cc1 (stereo unspecified) | active: 11.2 µM | – |

Individual results from the entries so far:
Under Potency, CC(=O)c1ccc(NC(=S)NC(C)c2ccc(Cl)cc2Cl)cc1 (stereo unspecified) reads active: 11.2 µM
Under Potency, COc1ccc(Oc2ccc(/C=C/C(=O)c3cccc(OC)c3)cc2[N+](=O)[O-])cc1 reads inconclusive: 35.5 µM [inhibitor, single point]

Later entries

| Compound | Potency | activity change, negative = inhibition |
| --- | --- | --- |
| Cc1ccc(C(=O)NC2CCCCCCC2)c(Cl)c1 | active: 7.08 µM | – |
| Cc1cc(NC(=O)CCC(=O)N(c2cccnc2)C(C(=O)NC2CCCC2)c2ccccc2F)no1 (stereo unspecified) | inconclusive: 1.58 µM [inhibitor, partial curve] | – |
| O=C(CSc1nnc(NC2CCCCC2)s1)NCc1ccco1 | – | inactive: 19% |
| c1cnc2c(OCc3cn4cccnc4n3)cccc2c1 | inconclusive: 35.5 µM [inhibitor, single point] | – |
| COc1ccccc1CNC(=S)NCCc1ccccc1 | active: 2.51 µM | – |
| Cc1cccc(C2N(c3nccs3)C(=O)C3CCCN32)c1 (stereo unspecified) | inconclusive: 35.5 µM [inhibitor, single point] | – |
| O=C(Nc1cccc2nsnc12)c1cccs1 | inconclusive: 6.31 µM [activator, partial curve] | – |
| Cc1ccccc1CN1C(=O)/C(=C\c2ccc(C(=O)NCCN3CCOCC3)cc2)Sc2ccccc21 | inconclusive: 12.6 µM [inhibitor, single point] | – |
| COc1ccc(C2CC(=O)C3=C(C2)NC(C)=C(C#N)C3c2ccc(N(C)C)cc2)cc1 (stereo unspecified) | inconclusive: 22.4 µM [activator, single point] | – |
| COc1ccc(C(=O)Nc2ccc(-c3ccc(C)o3)cc2)cc1S(=O)(=O)N1CCOCC1 | inconclusive: 22.4 µM [activator, single point] | – |
| Cc1ccc(NC(CC(=O)c2ccccc2)c2ccc(F)cc2)cc1 (stereo unspecified) | – | inactive: 31.6% |
| Nc1cccc(-c2nc3ccccc3[nH]2)c1 | inconclusive: 35.5 µM [activator, single point] | – |
| O=C(Nc1ccccc1Cl)N(Cc1nc2ccccc2c(=O)[nH]1)Cc1cccs1 | active: 11.2 µM | – |
| O=C(NN1C(=O)c2ccccc2C1=O)c1ccc2c(c1)C(=O)N(CC1CCCO1)C2=O (stereo unspecified) | – | inactive: 4.3% |
| Cc1ccc(/C=C2/CCc3c([nH]c4ccccc34)C2=O)cc1 | inconclusive: 12.6 µM [inhibitor, partial curve, poor fit] | – |
| CCN(CC)c1ccc(/C=N/NC(=O)C(O)(c2ccccc2)c2ccccc2)o1 | active: 5.62 µM | – |
| CCn1c(C)nc2cc(C(=O)N/N=C(\C)c3ccc(OC)cc3O)ccc21 | active: 1 µM | – |
| CN(C)c1ccc(C(=O)n2nnc3ccccc32)cc1 | inconclusive: 7.94 µM [inhibitor, single point] | – |
| CCCCCC(=O)NC(=S)Nc1ccc2oc(=O)ccc2c1 | active: 11.2 µM | – |
| COc1ccc(S(=O)(=O)N(CC(=O)NCCC(C)C)c2ccccc2)cc1OC | – | inactive: 18% |
| Cc1ccccc1CS(=O)(=O)c1nnc([C@H](CC(C)C)NC(=O)OC(C)(C)C)o1 | active: 7.08 µM | – |
| Cc1ccc(-c2sc(-c3ccccc3)nc2CC(=O)Nc2ccccc2F)cc1 | inconclusive: 3.55 µM [activator, single point] | – |
| CC1=C(C(=O)N2CCCC(C(=O)c3cccc(C(F)(F)F)c3)C2)OCCO1 (stereo unspecified) | inconclusive: 35.5 µM [inhibitor, single point] | – |
